This is an account of results in the supplement of paper PMC11732987, “Enantioselective OTUD7B fragment discovery through chemoproteomics screening and high-throughput optimisation” (Communications Chemistry, 2025).

Amino acid sequences for entries named in this document (tags omitted). A change or cut given only in a name is not applied to a line headed by its entry.
UniProt Q9Y274: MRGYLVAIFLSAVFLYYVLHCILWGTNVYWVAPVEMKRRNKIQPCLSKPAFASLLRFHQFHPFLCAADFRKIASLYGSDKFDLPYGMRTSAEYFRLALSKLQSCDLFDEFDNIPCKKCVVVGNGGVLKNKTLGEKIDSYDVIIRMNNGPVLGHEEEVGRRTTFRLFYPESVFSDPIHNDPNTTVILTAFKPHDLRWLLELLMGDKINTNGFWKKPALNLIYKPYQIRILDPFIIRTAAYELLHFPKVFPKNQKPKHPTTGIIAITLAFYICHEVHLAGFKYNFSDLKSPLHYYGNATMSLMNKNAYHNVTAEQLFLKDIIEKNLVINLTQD
UniProt Q15833: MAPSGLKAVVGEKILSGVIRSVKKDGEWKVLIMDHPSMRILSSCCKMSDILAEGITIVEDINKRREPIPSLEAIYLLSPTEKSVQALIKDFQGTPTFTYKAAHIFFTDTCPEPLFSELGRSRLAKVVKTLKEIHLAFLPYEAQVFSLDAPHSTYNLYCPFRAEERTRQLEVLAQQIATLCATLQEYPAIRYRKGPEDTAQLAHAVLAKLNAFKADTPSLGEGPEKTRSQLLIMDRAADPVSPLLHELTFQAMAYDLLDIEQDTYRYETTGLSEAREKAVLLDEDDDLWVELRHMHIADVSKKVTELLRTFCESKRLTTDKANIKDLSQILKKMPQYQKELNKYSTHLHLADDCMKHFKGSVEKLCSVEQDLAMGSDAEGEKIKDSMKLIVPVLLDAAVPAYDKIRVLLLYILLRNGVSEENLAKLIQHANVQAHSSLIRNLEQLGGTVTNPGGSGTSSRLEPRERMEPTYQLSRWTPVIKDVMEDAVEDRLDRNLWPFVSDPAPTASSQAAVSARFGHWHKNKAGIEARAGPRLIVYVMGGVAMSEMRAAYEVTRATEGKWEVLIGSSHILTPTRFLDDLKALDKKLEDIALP
UniProt Q8N1F8: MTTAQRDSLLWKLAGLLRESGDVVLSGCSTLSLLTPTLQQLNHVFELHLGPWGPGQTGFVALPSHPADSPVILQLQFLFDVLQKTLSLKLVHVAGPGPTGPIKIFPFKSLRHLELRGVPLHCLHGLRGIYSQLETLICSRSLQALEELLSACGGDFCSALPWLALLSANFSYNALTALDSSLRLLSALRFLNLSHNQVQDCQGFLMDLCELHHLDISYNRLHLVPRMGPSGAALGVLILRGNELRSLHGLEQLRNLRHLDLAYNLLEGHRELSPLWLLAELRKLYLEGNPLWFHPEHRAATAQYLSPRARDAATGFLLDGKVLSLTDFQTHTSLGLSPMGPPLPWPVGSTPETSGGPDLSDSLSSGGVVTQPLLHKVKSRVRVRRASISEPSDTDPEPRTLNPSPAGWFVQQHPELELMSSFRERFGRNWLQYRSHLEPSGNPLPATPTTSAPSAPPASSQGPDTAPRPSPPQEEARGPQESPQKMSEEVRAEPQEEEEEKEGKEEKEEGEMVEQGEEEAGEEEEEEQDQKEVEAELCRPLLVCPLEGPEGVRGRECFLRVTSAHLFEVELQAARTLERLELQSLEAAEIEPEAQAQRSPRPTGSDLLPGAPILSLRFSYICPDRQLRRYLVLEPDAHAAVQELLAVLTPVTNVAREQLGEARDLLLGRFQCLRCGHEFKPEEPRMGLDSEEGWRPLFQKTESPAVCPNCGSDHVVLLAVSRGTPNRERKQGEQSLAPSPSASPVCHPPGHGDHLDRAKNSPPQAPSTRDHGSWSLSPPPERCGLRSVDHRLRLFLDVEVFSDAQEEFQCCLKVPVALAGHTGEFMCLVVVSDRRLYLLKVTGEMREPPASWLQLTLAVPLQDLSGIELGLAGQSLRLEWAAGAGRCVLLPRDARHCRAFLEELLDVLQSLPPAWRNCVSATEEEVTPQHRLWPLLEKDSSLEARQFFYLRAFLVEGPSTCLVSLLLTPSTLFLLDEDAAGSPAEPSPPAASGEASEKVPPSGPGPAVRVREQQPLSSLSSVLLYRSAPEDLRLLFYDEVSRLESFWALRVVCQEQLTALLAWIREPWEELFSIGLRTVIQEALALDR
UniProt Q9Y5M8: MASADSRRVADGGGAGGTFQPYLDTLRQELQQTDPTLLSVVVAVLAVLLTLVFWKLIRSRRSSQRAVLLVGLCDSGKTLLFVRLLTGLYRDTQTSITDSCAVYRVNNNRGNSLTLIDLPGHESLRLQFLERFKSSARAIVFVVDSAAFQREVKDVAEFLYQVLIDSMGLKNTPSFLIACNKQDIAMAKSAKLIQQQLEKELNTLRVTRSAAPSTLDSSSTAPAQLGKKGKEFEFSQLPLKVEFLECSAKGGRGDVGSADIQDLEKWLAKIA
UniProt P08240: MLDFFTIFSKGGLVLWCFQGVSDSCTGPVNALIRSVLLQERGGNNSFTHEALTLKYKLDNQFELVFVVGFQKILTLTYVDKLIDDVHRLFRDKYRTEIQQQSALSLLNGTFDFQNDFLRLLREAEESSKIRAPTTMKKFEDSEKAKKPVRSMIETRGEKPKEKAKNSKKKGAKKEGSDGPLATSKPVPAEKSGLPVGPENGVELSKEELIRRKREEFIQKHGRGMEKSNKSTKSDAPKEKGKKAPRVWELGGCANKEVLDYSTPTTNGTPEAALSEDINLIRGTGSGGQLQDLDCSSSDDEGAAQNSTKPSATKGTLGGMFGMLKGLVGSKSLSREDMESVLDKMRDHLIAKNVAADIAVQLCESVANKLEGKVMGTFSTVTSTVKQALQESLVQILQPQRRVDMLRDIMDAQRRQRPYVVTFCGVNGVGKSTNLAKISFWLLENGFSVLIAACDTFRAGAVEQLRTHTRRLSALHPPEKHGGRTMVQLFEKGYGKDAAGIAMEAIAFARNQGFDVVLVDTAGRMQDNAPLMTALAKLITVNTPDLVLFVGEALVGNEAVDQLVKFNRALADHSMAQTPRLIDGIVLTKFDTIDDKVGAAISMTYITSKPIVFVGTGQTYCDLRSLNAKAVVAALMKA
UniProt Q9BUA3: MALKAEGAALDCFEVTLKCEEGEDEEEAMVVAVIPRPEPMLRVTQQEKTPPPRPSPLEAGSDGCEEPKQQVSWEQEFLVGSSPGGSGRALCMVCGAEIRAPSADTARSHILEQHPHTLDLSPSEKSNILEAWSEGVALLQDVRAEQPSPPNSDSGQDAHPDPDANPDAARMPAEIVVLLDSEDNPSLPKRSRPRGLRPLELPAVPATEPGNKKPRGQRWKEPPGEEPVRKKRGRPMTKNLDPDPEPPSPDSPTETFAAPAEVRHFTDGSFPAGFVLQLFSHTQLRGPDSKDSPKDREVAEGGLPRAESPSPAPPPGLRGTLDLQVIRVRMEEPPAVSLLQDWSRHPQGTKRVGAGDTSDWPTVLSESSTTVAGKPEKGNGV
UniProt Q13586: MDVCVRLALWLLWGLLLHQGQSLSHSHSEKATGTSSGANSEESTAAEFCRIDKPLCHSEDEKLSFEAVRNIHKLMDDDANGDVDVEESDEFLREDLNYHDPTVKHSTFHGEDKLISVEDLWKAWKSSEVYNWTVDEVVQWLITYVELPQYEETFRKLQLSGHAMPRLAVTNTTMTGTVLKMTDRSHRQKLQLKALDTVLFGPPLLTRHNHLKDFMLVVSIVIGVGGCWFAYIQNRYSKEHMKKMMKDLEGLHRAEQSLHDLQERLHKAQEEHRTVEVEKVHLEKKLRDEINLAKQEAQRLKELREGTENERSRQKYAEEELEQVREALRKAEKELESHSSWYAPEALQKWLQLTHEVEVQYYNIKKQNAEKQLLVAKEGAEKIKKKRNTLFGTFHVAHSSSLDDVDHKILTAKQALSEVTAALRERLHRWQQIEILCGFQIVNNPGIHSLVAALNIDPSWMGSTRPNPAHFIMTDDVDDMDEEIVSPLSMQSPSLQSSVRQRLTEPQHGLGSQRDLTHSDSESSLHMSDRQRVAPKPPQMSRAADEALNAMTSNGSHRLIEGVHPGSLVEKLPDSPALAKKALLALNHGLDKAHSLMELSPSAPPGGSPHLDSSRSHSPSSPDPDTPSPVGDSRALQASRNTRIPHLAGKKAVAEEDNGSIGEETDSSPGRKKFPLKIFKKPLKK
UniProt Q8NB90: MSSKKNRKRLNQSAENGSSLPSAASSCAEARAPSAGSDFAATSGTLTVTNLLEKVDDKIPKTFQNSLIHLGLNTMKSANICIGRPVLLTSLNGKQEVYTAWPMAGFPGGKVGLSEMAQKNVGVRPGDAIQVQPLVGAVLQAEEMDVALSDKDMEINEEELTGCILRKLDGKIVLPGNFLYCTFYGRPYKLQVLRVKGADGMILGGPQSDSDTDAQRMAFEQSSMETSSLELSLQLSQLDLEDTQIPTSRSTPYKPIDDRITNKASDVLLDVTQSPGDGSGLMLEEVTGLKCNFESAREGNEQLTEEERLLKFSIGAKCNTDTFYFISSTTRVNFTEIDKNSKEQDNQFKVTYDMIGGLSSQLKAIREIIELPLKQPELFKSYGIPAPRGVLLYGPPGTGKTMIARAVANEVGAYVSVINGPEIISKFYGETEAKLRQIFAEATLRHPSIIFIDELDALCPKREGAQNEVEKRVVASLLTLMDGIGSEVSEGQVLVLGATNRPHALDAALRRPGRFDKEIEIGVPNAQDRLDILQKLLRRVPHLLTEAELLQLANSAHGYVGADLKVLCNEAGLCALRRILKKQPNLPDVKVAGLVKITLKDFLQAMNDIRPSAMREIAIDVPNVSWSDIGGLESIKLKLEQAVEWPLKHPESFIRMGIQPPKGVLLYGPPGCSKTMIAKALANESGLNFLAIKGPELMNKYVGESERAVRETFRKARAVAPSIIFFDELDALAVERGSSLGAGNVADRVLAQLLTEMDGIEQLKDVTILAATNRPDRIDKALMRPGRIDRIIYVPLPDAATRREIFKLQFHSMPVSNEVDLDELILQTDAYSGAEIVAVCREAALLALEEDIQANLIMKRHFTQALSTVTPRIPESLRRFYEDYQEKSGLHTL
UniProt Q9BXP5: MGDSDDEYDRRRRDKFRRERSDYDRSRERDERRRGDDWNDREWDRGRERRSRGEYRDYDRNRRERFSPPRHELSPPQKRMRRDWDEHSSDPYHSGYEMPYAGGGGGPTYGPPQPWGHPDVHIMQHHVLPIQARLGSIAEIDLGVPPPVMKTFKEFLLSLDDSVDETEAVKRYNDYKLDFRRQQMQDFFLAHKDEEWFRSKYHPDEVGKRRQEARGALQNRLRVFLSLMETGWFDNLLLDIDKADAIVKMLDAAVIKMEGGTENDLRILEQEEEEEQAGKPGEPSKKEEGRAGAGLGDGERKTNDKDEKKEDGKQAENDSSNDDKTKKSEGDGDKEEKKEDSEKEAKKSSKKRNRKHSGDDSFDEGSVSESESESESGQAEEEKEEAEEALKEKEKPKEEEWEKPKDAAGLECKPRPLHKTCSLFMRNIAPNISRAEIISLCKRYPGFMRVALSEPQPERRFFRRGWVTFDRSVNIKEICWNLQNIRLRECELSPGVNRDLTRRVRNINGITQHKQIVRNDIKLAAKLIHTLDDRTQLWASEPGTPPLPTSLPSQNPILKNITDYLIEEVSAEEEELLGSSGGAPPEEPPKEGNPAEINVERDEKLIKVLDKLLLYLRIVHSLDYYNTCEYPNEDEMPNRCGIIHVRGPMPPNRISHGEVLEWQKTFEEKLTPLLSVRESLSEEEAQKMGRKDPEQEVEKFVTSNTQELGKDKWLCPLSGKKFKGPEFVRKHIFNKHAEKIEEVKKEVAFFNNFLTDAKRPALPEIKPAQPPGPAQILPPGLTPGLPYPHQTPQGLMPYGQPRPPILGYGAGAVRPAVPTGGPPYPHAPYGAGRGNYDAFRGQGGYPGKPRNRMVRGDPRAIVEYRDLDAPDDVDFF
UniProt Q15208: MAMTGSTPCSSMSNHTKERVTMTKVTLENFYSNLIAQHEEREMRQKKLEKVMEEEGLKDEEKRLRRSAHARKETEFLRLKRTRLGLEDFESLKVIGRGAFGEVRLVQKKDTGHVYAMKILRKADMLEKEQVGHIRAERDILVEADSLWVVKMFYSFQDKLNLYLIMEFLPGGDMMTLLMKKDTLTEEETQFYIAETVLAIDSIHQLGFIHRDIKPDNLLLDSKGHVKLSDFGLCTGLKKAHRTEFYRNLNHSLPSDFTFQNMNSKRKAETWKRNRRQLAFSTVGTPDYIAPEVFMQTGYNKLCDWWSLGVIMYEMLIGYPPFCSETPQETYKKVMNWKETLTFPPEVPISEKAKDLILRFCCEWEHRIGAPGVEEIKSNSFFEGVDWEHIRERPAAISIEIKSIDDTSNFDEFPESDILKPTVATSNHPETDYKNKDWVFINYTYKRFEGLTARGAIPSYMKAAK

Compound in the test: ClCC(=O)N[C@H]1CCCc2ccccc12
Description: log2 mean competition ratio of IA-DTB cysteine labelling (DMSO/compound) (log2 ratio); higher = stronger cysteine engagement by compound. The note with it: treatment time: 4 h, cell line lysate: HEK293T. The method, then:
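IA-DTB competitive cysteine chemoproteomics in HEK293T RIPA lysate. Lysates were treated with compound 29 or 30 at 50 or 200 µM for 4 h, then IA-DTB (500 µM, 1 h), trypsin-digested, NeutrAvidin-enriched and analysed by diaPASEF. Competition ratio = intensity DMSO / intensity compound (n=4 treated, n=64 DMSO); binding: mean log2 CR ≥ 1 and p ≤ 0.05 plus QC filters. Target is the cysteine site.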

The other results are listed elsewhere or left out. The data scatter; read single values as rough.

As for ST3GAL6 C118 (UniProt Q9Y274), the “log2 mean competition ratio” value (50 µM) was -0.199 and the “log2 mean competition ratio” value (200 µM) was 0.216.

For STXBP2 C353 (UniProt Q15833), the “log2 mean competition ratio” value runs as follows: (50 µM) -0.164; (200 µM) 0.0669.

As for STK11IP C138 (UniProt Q8N1F8), the “log2 mean competition ratio” value (50 µM) stood at 0.195 and the “log2 mean competition ratio” value (200 µM) came out at 0.449.

Take SRPRB C179 (UniProt Q9Y5M8): the “log2 mean competition ratio” value is, setting by setting: (50 µM) 0.456; (200 µM) 0.233.

For SUFU C292 (UniProt Q9UMX1), the “log2 mean competition ratio” value is 0.323 (50 µM) and -0.036 (200 µM).

As to SPAST C220 (UniProt Q9UBP0), the “log2 mean competition ratio” value runs as follows: (50 µM) 0.182; (200 µM) 0.178.

Take STIL C134 (UniProt Q15468): the “log2 mean competition ratio” value reads like this: (50 µM) -0.125; (200 µM) -0.087.

STAM C33: the “log2 mean competition ratio” value (50 µM) came out at 0.0995 and the “log2 mean competition ratio” value (200 µM) is -0.00662.

As for SPTLC1 C133 (UniProt O15269), the “log2 mean competition ratio” value reads like this: (50 µM) 0.148; (200 µM) -0.12.

Take SRBD1 C762 (UniProt Q8N5C6): the “log2 mean competition ratio” value is, setting by setting: (50 µM) 0.316; (200 µM) 0.101.

In the case of SRPRA C253 (UniProt P08240), the “log2 mean competition ratio” value reads like this: (50 µM) 0.45; (200 µM) 0.107.

As to SPINDOC C12 (UniProt Q9BUA3), the “log2 mean competition ratio” value is, setting by setting: (50 µM) -0.0254; (200 µM) -0.0495.

Turning to STIM1 C56 (UniProt Q13586), the “log2 mean competition ratio” value by setting is: (50 µM) -0.541; (200 µM) -0.0735.

For the target SPATA5 C459 (UniProt Q8NB90), the “log2 mean competition ratio” value was found to be 0.477 (50 µM) and 0.175 (200 µM).

As to STXBP3 C557 (UniProt O00186), the “log2 mean competition ratio” value (50 µM) was -0.214 and the “log2 mean competition ratio” value (200 µM) was -0.113.

As to SPTLC1 C419 (UniProt O15269), the “log2 mean competition ratio” value was -0.383 (50 µM) and -0.0676 (200 µM).

With SPICE1 C453 (UniProt Q8N0Z3), the “log2 mean competition ratio” value is, setting by setting: (50 µM) 0.141; (200 µM) 0.0237.

With SRRT C715 (UniProt Q9BXP5), the “log2 mean competition ratio” value came to 0.297 (50 µM) and 0.952 (200 µM).

STK38 C234 (UniProt Q15208): the “log2 mean competition ratio” value by setting is: (50 µM) -0.0994; (200 µM) 0.134.

As to SYNE2 C5348 (UniProt Q8WXH0), the “log2 mean competition ratio” value was -0.346 (50 µM) and 0.0741 (200 µM).
